{"source": "PubChem BioAssay AID504834", "about": "(National Center for Advancing Translational Sciences (NCATS), 2011)", "note": "The whole screen tested about 320,000 compounds, of which about 22,000 (6.9%) were called active. Inconclusive means that the source gave no clear call. Such entries were picked first, then a sample of the others. Calls come from the whole dose curve; as a rule, active = well fitted inhibition curve with a large enough effect; inconclusive = small, poorly fitted or top-dose-only effect, or another doubt; inactive = no such curve, though single readings can be large or run the other way. A potency beside an inconclusive call is a rough fit, not a confirmed value. % is set by controls: 0 for no effect and ±100 for the full control effect; potency is the fitted concentration of half-maximal effect."}
{"experiment": "Primary qHTS for delayed death inhibitors of the malarial parasite plastid, 96 hour incubation", "details": "P. falciparum luciferase reporter growth; series mostly up to 28.7 µM; activity change, negative = inhibition: at the top concentration", "method_in_brief": "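Delayed-death screen, second-generation endpoint: infected erythrocytes, 2% hematocrit, 0.05% parasitemia final; 96 hours at 37 C, 5% CO2; luciferase detection reagent; luminescence decrease equals reduced growth.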"}
{"compound": "CC(=O)c1cc2c(cc1NC(=O)CSc1ccc(S(=O)(=O)N(C)C)cn1)OCO2", "Potency": "inconclusive: 10.4 µM [inhibitor, single point]"}
{"compound": "Oc1cc(Nc2ccccc2)cc2cccnc12", "Potency": "active: 2.62 µM"}
{"compound": "Cc1ccccc1-n1c(C)cc(/C=C(\\C#N)C(=O)NCC2CCCO2)c1C", "note": "(configuration not stated)", "Potency": "active: 8.28 µM"}
{"compound": "O=C1CN(C(=O)N[C@@H](Cc2ccccc2)C(=O)N[C@@H](Cc2ccccc2)C(=O)O)c2ccccc2N1", "Potency": "inconclusive: 0.0928 µM [inhibitor, full curve, poor fit]"}
{"compound": "Cc1nc(-c2cccc(NC(=O)c3ccc(-n4nccc4C)cc3)c2)cs1", "Potency": "inconclusive: 1.31 µM [inhibitor, partial curve, poor fit]"}
{"compound": "CNS(=O)(=O)c1cc(NC(=O)c2cccc3cccnc23)ccc1C", "activity change, negative = inhibition": "inactive: -27%"}
{"compound": "Cc1cccc(NC(=O)NC(=S)NC(=O)c2ccccc2)c1", "activity change, negative = inhibition": "inactive: 111%"}
{"compound": "O=C1CN(C(=O)CSc2nc3ccccc3c(=O)n2CCCN2CCOCC2)c2ccccc2N1", "Potency": "inconclusive: 4.15 µM [inhibitor, partial curve]"}
{"compound": "COc1cccc(OC)c1OCCCCN1CCCCC1", "Potency": "active: 13.1 µM"}
{"compound": "COc1ccc(OC)c(N/C=C/C(=O)c2ccccc2)c1", "Potency": "inconclusive: 18.5 µM [inhibitor, single point]"}
{"compound": "NC(=S)Cc1nc(-c2ccccc2)cs1", "Potency": "inconclusive: 18.5 µM [inhibitor, single point]"}
{"compound": "CC(NC(=O)c1cccs1)C(c1cccs1)N1CCN(c2ccccc2)CC1", "note": "(configuration not stated)", "activity change, negative = inhibition": "inactive: -6.37%"}
{"compound": "CN1C(CC(=O)Nc2ccc(Cl)cc2Cl)c2ccccc2CC1(C)C", "note": "(configuration not stated)", "Potency": "inconclusive: 13.1 µM [inhibitor, partial curve, poor fit]"}
{"compound": "C=CCN(C(=O)c1ccc2snnc2c1)c1ccccc1", "activity change, negative = inhibition": "inactive: 24.8%"}
{"compound": "COc1ccc(C(=O)N/C(=C/c2ccco2)C(=O)NC2CCS(=O)(=O)C2)cc1", "note": "(configuration not stated)", "Potency": "inconclusive: 8.28 µM [inhibitor, partial curve, poor fit]"}
{"compound": "Fc1ccc(N2CCN(c3ccc4c(C(F)(F)F)cc(C(F)(F)F)nc4n3)CC2)cc1", "Potency": "inconclusive: 18.5 µM [inhibitor, single point]"}
{"compound": "CCN(CC)C(=O)COc1ccc(-c2nnc(Nc3ccc(OC)c(C(=O)NC)c3)c3ccccc23)cc1", "Potency": "active: 10.4 µM"}
{"compound": "COc1cc2cc(CN(CCc3ccccc3C)C(=S)NCCCN(C)C)c(=O)[nH]c2cc1OC", "Potency": "inconclusive: 18.5 µM [inhibitor, single point]"}
{"compound": "C=CCN(C(=O)c1csnn1)C(C(=O)NC1CCCC1)c1ccc(Cl)cc1", "note": "(configuration not stated)", "Potency": "inconclusive: 7.38 µM [inhibitor, partial curve, poor fit]"}
{"compound": "CCOC(=O)N/N=C/c1ccc(OC)c(O)c1", "Potency": "inconclusive: 7.38 µM [inhibitor, partial curve]"}
{"compound": "O=C(Nc1cccnc1)c1ccc(S(=O)(=O)N2CCCCCC2)cc1", "Potency": "inconclusive: 0.928 µM [inhibitor, partial curve, poor fit]"}
{"compound": "O=C(NCCC(=O)N1CCC2(CC1)NCCc1[nH]cnc12)c1ccc(Br)cc1", "Potency": "inconclusive: 18.5 µM [inhibitor, single point]"}
{"compound": "CCOC(=O)c1cccc(P(C)(C)=O)c1", "activity change, negative = inhibition": "inactive: -13.9%"}
{"compound": "Cc1cccc(NC(=O)CCc2ccccc2)c1C", "Potency": "inconclusive: 18.5 µM [inhibitor, partial curve, poor fit]"}
{"compound": "CCc1ccc(CNC(=O)c2ccc3nc(C4CCCCC4)oc3c2)nc1", "activity change, negative = inhibition": "inactive: -5.65%"}
{"compound": "Cc1cc(C(=O)OCC(=O)Nc2cccnc2Cl)c2ccccc2n1", "activity change, negative = inhibition": "inactive: 20.5%"}
{"compound": "COc1ccc(C(=O)NCc2ccncc2)cc1S(=O)(=O)N1CCOCC1", "Potency": "inconclusive: 10.4 µM [inhibitor, single point]"}
{"compound": "Cc1ccc(/C(N)=N/OC(=O)Cc2cccc3ccccc23)cc1", "activity change, negative = inhibition": "inactive: -20.6%"}
{"compound": "CCCN1CCC(=O)N([C@H](CSc2ccccc2)Cc2ccccc2)CC1", "Potency": "inconclusive: 18.5 µM [inhibitor, single point]"}
{"compound": "CCOC(=O)N1CCN(CC(c2ccccc2)c2ccccc2)CC1", "Potency": "inconclusive: 18.5 µM [inhibitor, single point]"}
{"compound": "COC(=O)c1c(C)[nH]c(C(=O)OC(C)C(=O)N(C)C2CCCCC2)c1C", "note": "(configuration not stated)", "Potency": "inconclusive: 18.5 µM [inhibitor, single point]"}
{"compound": "CCOCCCNCc1cn(-c2ccc(F)cc2F)nc1-c1ccccc1C", "Potency": "inconclusive: 6.57 µM [inhibitor, partial curve]"}
{"compound": "O=C(Nc1ccccn1)C1CCN(c2ncnc3c2nc2n3CCCCC2)CC1", "Potency": "inconclusive: 5.86 µM [inhibitor, partial curve]"}
{"compound": "COc1cccc(N(CC(=O)N2CCCC2)S(C)(=O)=O)c1", "Potency": "inconclusive: 13.1 µM [inhibitor, single point]"}
{"compound": "O=C1/C(=C\\c2ccc(C(F)(F)F)cc2)CSc2sccc21", "activity change, negative = inhibition": "inactive: 0.373%"}
{"compound": "c1ccc(COc2ccccc2CNC2CCCC2)cc1", "Potency": "active: 5.22 µM"}
{"compound": "COc1cc(CSc2nnnn2-c2ccc(C)cc2)cc(OC)c1OC", "activity change, negative = inhibition": "inactive: 119%"}
{"compound": "CCSCc1nc2ccccn2c1Br", "Potency": "inconclusive: 16.5 µM [inhibitor, partial curve, poor fit]"}
{"compound": "COc1ccc(NC(=O)C2CCCN2C(=O)NCc2ccccc2)cc1OC", "note": "(configuration not stated)", "Potency": "inconclusive: 18.5 µM [inhibitor, single point]"}
{"compound": "O=C(NC1CC1)c1scc2c1OCCO2", "Potency": "inconclusive: 0.262 µM [inhibitor, full curve]"}
{"compound": "COc1ccnc(N2CCN(c3ccccc3)CC2)c1C#N", "activity change, negative = inhibition": "inactive: 50.9%"}
{"compound": "Cc1ccn(CC(=O)N2N=C(C(F)F)CC2(O)C(F)F)n1", "note": "(configuration not stated)", "Potency": "inconclusive: 4.65 µM [inhibitor, partial curve, poor fit]"}
{"compound": "Cc1ccc(S(=O)(=O)N(C)/N=C/c2ccc(N(C)C)cc2)cc1", "activity change, negative = inhibition": "inactive: 62.1%"}
{"compound": "CC(C)c1ccc(S(=O)(=O)c2cc3cc(Br)ccc3oc2=O)cc1", "activity change, negative = inhibition": "inactive: 43.9%"}
{"compound": "O=C(CSC1=NS(=O)(=O)c2cc(Cl)ccc2N1)Nc1ccccc1C(F)(F)F", "activity change, negative = inhibition": "inactive: 0.909%"}
{"compound": "COc1cc(N)c(Cl)cc1C(=O)OCC(=O)c1cccs1", "activity change, negative = inhibition": "inactive: -4.46%"}
{"compound": "COc1cc(NC(=O)C2=C(N3CCOCC3)/C(=C\\c3ccc(Cl)cc3Cl)CC2)cc(OC)c1OC", "Potency": "inconclusive: 0.208 µM [inhibitor, partial curve, poor fit]"}
